Laboratory results from US20240218022A1, “ANTI-VISTA MACROCYCLIC PEPTIDES AND COMPOSITIONS” (BRISTOL-MYERS SQUIBB COMPANY, priority 2022, published 2024).
Like-named read-outs stand apart in the source and are kept apart here. At least one structure is not confirmed: it was looked up by name or label, or the drawing left a doubt. Starred links: 1 amine or outer side, 2 acyl side, 3 side chain; linkers in the order of their positions; H or OH if unused. Positions of bridges follow the written chain, without caps; N, C: chain ends. Non-standard residues stand in square brackets, D forms with d. Residues, ends and D or L forms follow the SMILES beside them. Phe(3-Me) = Cc1cccc(C[C@H](N)C(=O)O)c1; 2Nal = N[C@@H](Cc1ccc2ccccc2c1)C(=O)O; βAsp = O=C(O)[C@H](CC(=O)[*:2])N[*:1]; 3Pal = N[C@@H](Cc1cccnc1)C(=O)O; Tic = O=C(O)[C@@H]1Cc2ccccc2CN1; Ahp(2) = CCCCC[C@H](N)C(=O)O; NMeNle = CCCC[C@H](NC)C(=O)O; Tle = CC(C)(C)[C@H](N)C(=O)O; NHexGly = CCCCCCNCC(=O)O; NMeA = CN[C@@H](C)C(=O)O; Nle = CCCC[C@H](N)C(=O)O; Orn = NCCC[C@H](N)C(=O)O; Aun = NCCCCCCCCCCC(=O)O; AEEA = NCCOCCOCC(=O)O

Molecular target: T1, mouse VISTA (mVISTA) (Mus musculus, UniProt Q9D659)
T1 construct: expressed in transfected cells; host or cells: Human embryonic kidney 293T cells
T1 sequence (Q9D659 33-308): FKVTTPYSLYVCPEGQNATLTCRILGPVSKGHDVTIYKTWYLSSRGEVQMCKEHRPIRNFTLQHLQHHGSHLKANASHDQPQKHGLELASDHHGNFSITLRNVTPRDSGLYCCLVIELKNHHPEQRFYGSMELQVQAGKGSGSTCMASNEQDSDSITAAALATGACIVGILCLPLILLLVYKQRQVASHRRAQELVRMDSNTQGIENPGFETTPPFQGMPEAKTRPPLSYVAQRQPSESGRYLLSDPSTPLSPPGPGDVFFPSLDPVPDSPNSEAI
Assay: Cell-Based Binding High-Content Assay For mVISTA (HC CBA mVISTA)
Method: Cell-Based Binding High-Content Assay For mVISTA
Human embryonic kidney 293T cells (293T) expressing mouse VISTA (mVISTA) were used for the assessment of compounds competing with the binding of a biotinylated peptide. Cryopreserved cells were thawed in a 37° C. water bath and incubated overnight at a 37° C./5% CO2 incubator in assay culture media DMEM (Life Technologies Inc. Cat. No. 11995-126) supplemented with 10% (v/v) FBS (Sigma, Cat. No. F4135), 1× Penicillin/Streptomycin (Life Technologies Inc. Cat. No. 15140-122). Cells were harvested, washed and resuspended in DMEM media […]. To test compounds under “no-wash” condition, cells were seeded into PDL-coated 384 well plates (Corning, Cat. No. 356663) at 4,000 cells/20 μL. After incubating the cell plates for two hours at a 37° C./5% CO2 incubator, 125 nL of test compound was added using an ECHO. Alternatively, to test compounds under “wash” condition, test compounds were added first, followed by addition of 20 μL cells at a density of 4000 cells/well. After incubation for an hour, the media was removed, followed by addition of 20 μL of fresh media ( ), and plates were then incubated for another hour. To plates either under “no wash” or “wash” condition, the biotinylated peptide was added to a final concentration of 2 nM, and plates were incubated at room temperature for 30 minutes. Fifteen (15) μL of Alexa 647 conjugated Streptavidin (Life Tech, Cat. No. S21374), suspended at 2 μg/ml in media, was added to the assay plate and incubate for 30 minutes. Cells were fixed by adding 15 μL of formaldehyde at a final concentration of 8% (w/v) (Sigma Cat. No. 252549), 20 μg/mL Hoechst (Thermo Scientific Cat. No. 62249) in PBS for 10 minutes at room temperature. The plates were washed 3 times in dPBS, sealed, and read on a CellInsight NXT High Content Screening Platform IC903000 (Thermo Scientific). The 50% effective concentration (IC50) was calculated using the four-parameter logistic formula y=A+((B−A)/(1+((C/x)^D))), where A and B denote minimal and maximal % inhibition, respectively, C is the EC50, D is hill slope and x represent compound concentration.

[1] = cell-based binding high-content assay, mVISTA, read-out: HC CBA miPr ISTA IC50

## CCCCCCN1CC(=O)N[C@@H](Cc2ccc(O)cc2)C(=O)N[C@@H](CCCC)C(=O)N[C@@H](CC(N)=O)C(=O)N[C@@H](CCCNC(=N)N)C(=O)N2Cc3ccccc3C[C@H]2C(=O)N[C@@H](CCCCC)C(=O)N2CCC[C@H]2C(=O)N[C@@H](C(C)C)C(=O)N[C@@H](CC(=O)O)C(=O)N[C@H](C(=O)N[C@@H](CC(=O)NCCOCCOCC(=O)NCCCCCCCCCCC(=O)O)C(=O)O)CSCC(=O)N[C@@H](Cc2ccccc2)C(=O)N[C@@H](Cc2c[nH]c3ccccc23)C(=O)N[C@@H](CC(=O)O)C1=O [Example 2148] ({CH2CO}-FWD[NHexGly]Y[Nle]NR[Tic][Ahp(2)]PVDC[βAsp][AEEA][Aun]-OH; thioether N-14)
read-out: HC CBA mVISTA IC50
  IC50: 36.7 nM

## CCCCCCN1CC(=O)N[C@@H](Cc2ccc(O)cc2)C(=O)N[C@@H](CC(C)C)C(=O)N[C@@H](CC(N)=O)C(=O)N[C@@H](CCCNC(=N)N)C(=O)N(C)[C@@H](CCCC)C(=O)N[C@@H](CCCCC)C(=O)N2CCC[C@H]2C(=O)N[C@@H](C(C)(C)C)C(=O)N[C@@H](CO)C(=O)N[C@H](C(=O)N[C@@H](CC(=O)NCCOCCOCC(=O)N[C@@H](CC(=O)O)C(=O)NCCOCCOCC(=O)NCCCCCCCCCCC(=O)O)C(=O)O)CSCC(=O)N[C@@H](Cc2ccccc2)C(=O)N[C@@H](Cc2c[nH]c3ccccc23)C(=O)N[C@@H](CC(=O)O)C1=O [compound 2028] ({CH2CO}-FWD[NHexGly]YLNR[NMeNle][Ahp(2)]P[Tle]SC[βAsp][AEEA]D[AEEA][Aun]-OH; thioether N-14)
[1]
  IC50: 16.6 nM

## CCCCCCN1CC(=O)N[C@@H](Cc2ccc(O)cc2)C(=O)N[C@@H](CC(C)C)C(=O)N[C@@H](CC(=O)O)C(=O)N[C@@H](CCCN)C(=O)N(C)[C@@H](CCCC)C(=O)N[C@@H](CCCCC)C(=O)N2CCC[C@H]2C(=O)N[C@@H](C(C)(C)C)C(=O)N[C@@H](CC(N)=O)C(=O)N[C@H](C(=O)NCCOCCOCC(=O)N[C@@H](CC(=O)NCCOCCOCC(=O)NCCCCCCCCCCC(=O)O)C(=O)O)CSCC(=O)N[C@@H](Cc2ccccc2)C(=O)N[C@@H](Cc2ccc(O)cc2)C(=O)N[C@@H](CC(=O)O)C1=O [Example 2209] ({CH2CO}-FYD[NHexGly]YLD[Orn][NMeNle][Ahp(2)]P[Tle]NC[AEEA][βAsp][AEEA][Aun]-OH; thioether N-14)
read-out: HC CBA mVISTA IC50
  IC50: 25.2 nM

## CCCCCCN1CC(=O)N[C@@H](Cc2ccc(O)cc2)C(=O)N[C@@H](CCCCC)C(=O)N[C@@H](CC(N)=O)C(=O)N[C@@H](CCCNC(=N)N)C(=O)N[C@@H](CC(C)C)C(=O)N[C@@H](CCCCC)C(=O)N(C)[C@@H](C)C(=O)N[C@@H](C(C)C)C(=O)N[C@@H](CO)C(=O)N[C@H](C(=O)NCC(N)=O)CSCC(=O)N[C@@H](Cc2ccccc2)C(=O)N[C@@H](Cc2ccc(O)cc2)C(=O)N[C@@H](CC(=O)O)C1=O [compound 1152] ({CH2CO}-FYD[NHexGly]Y[Ahp(2)]NRL[Ahp(2)][NMeA]VSCG-NH2; thioether N-14)
read-out: HC CBA mVISTA IC50
  IC50: 38.3 nM

## CCCCCCN1CC(=O)N[C@@H](Cc2ccc(O)cc2)C(=O)N[C@@H](CC(C)C)C(=O)N[C@@H](CC(N)=O)C(=O)N[C@@H](CCCNC(=N)N)C(=O)N(C)[C@@H](CCCC)C(=O)N[C@@H](CCCCC)C(=O)N2CCC[C@H]2C(=O)N[C@@H](C(C)C)C(=O)N[C@@H](CO)C(=O)N[C@H](C(=O)NCC(N)=O)CSCC(=O)N[C@@H](Cc2cccnc2)C(=O)N[C@@H](Cc2ccc(O)cc2)C(=O)N[C@@H](CC(=O)O)C1=O [compound 1148] ({CH2CO}-[3Pal]YD[NHexGly]YLNR[NMeNle][Ahp(2)]PVSCG-NH2; thioether N-14)
read-out: HC CBA mVISTA IC50
  IC50: 42.7 nM

## CCCCCCN1CC(=O)N[C@@H](Cc2ccc(O)cc2)C(=O)N[C@@H](CC(C)C)C(=O)NCC(=O)N[C@@H](CCCNC(=N)N)C(=O)N2Cc3ccccc3C[C@H]2C(=O)N[C@@H](CCCCC)C(=O)N2CCC[C@H]2C(=O)N[C@@H](C(C)C)C(=O)N[C@@H](CO)C(=O)N[C@H](C(=O)NCC(=O)O)CSCC(=O)N[C@@H](Cc2ccccc2)C(=O)N[C@@H](Cc2ccc(O)cc2)C(=O)N[C@@H](CC(=O)O)C1=O [compound 1157] ({CH2CO}-FYD[NHexGly]YLGR[Tic][Ahp(2)]PVSCG-OH; thioether N-14)
read-out: HC CBA mVISTA IC50
  IC50: 14.4 nM

## CCCCCCN1CC(=O)N[C@@H](Cc2ccc(O)cc2)C(=O)N[C@@H](CCCC)C(=O)N[C@@H](CC(N)=O)C(=O)N[C@@H](CCCNC(=N)N)C(=O)N(C)[C@@H](CCCC)C(=O)N[C@@H](CCCCC)C(=O)N2CCC[C@H]2C(=O)N[C@@H](C(C)C)C(=O)N[C@@H](CC(=O)O)C(=O)N[C@H](C(=O)NCC(=O)NCCOCCOCC(=O)N[C@@H](CC(=O)O)C(=O)NCCOCCOCC(=O)NCCCCCCCCCCC(=O)O)CSCC(=O)N[C@@H](Cc2ccc3ccccc3c2)C(=O)N[C@@H](Cc2c[nH]c3ccccc23)C(=O)N[C@@H](CC(=O)O)C1=O [compound 2006] ({CH2CO}-[2Nal]WD[NHexGly]Y[Nle]NR[NMeNle][Ahp(2)]PVDCG[AEEA]D[AEEA][Aun]-OH; thioether N-14)
[1]
  IC50: 28.5 nM

## CCCCCCN1CC(=O)N[C@@H](Cc2ccc(O)cc2)C(=O)N[C@@H](CCCC)C(=O)N[C@@H](CC(N)=O)C(=O)N[C@@H](CCCNC(=N)N)C(=O)N[C@@H](CC(C)C)C(=O)N[C@@H](CCCCC)C(=O)N2CCC[C@@H]2C(=O)N[C@@H](C(C)C)C(=O)N[C@@H](CC(=O)O)C(=O)N[C@H](C(=O)NCC(=O)N[C@@H](CC(=O)NCCOCCOCC(=O)N[C@@H](CC(=O)O)C(=O)NCCOCCOCC(=O)NCCCCCCCCCCC(=O)O)C(=O)O)CSCC(=O)N[C@@H](Cc2cccc(C)c2)C(=O)N[C@@H](Cc2c[nH]c3ccccc23)C(=O)N[C@@H](CC(=O)O)C1=O [compound 2104] ({CH2CO}-[Phe(3-Me)]WD[NHexGly]Y[Nle]NRL[Ahp(2)][dP]VDCG[βAsp][AEEA]D[AEEA][Aun]-OH; thioether N-14)
read-out: HC CBA mVISTA IC50
  IC50: 10.8 nM

## CCCCCCN1CC(=O)N[C@@H](Cc2ccc(O)cc2)C(=O)N[C@@H](CCCC)C(=O)N[C@@H](CC(N)=O)C(=O)N[C@@H](CCCNC(=N)N)C(=O)N2Cc3ccccc3C[C@H]2C(=O)N[C@@H](CCCCC)C(=O)N2CCC[C@H]2C(=O)N[C@@H](C(C)C)C(=O)N[C@@H](CO)C(=O)N[C@H](C(=O)N[C@@H](CC(=O)NCCOCCOCC(=O)NCCCCCCCCCCC(=O)O)C(=O)O)CSCC(=O)N[C@@H](Cc2ccc3ccccc3c2)C(=O)N[C@@H](Cc2ccc(O)cc2)C(=O)N[C@@H](CC(=O)O)C1=O [Example 2168] ({CH2CO}-[2Nal]YD[NHexGly]Y[Nle]NR[Tic][Ahp(2)]PVSC[βAsp][AEEA][Aun]-OH; thioether N-14)
read-out: HC CBA mVISTA IC50
  IC50: 18 nM

## CCCCCCN1CC(=O)N[C@@H](Cc2ccc(O)cc2)C(=O)N[C@@H](CCCC)C(=O)N[C@@H](CC(N)=O)C(=O)N[C@@H](CCCNC(=N)N)C(=O)N2Cc3ccccc3C[C@H]2C(=O)N[C@@H](CCCCC)C(=O)N2CCC[C@H]2C(=O)N[C@@H](C(C)C)C(=O)N[C@@H](CC(=O)O)C(=O)N[C@H](C(=O)N[C@@H](CC(=O)NCCOCCOCC(=O)NCCCCCCCCCCC(=O)O)C(=O)O)CSCC(=O)N[C@@H](Cc2ccccc2)C(=O)N[C@@H](Cc2c[nH]c3ccccc23)C(=O)N[C@@H](CC(=O)O)C1=O [Example 2153] ({CH2CO}-FWD[NHexGly]Y[Nle]NR[Tic][Ahp(2)]PVDC[βAsp][AEEA][Aun]-OH; thioether N-14)
read-out: HC CBA mVISTA IC50
  IC50: 12.9 nM

## CCCCCCN1CC(=O)N[C@@H](Cc2ccc(O)cc2)C(=O)N[C@@H](CC(C)C)C(=O)N[C@@H](CC(N)=O)C(=O)N[C@@H](CCCNC(=N)N)C(=O)N(C)[C@@H](CCCC)C(=O)N[C@@H](CCCCC)C(=O)N2CCC[C@H]2C(=O)N[C@@H](C(C)(C)C)C(=O)N[C@@H](CC(=O)O)C(=O)N[C@H](C(=O)N[C@@H](CCCCN)C(=O)NCCOCCOCC(=O)N[C@@H](CC(=O)O)C(=O)NCCOCCOCC(=O)NCCCCCCCCCCC(=O)O)CSCC(=O)N[C@@H](Cc2ccccc2)C(=O)N[C@@H](Cc2ccc(O)cc2)C(=O)N[C@@H](CC(=O)O)C1=O [compound 2081] ({CH2CO}-FYD[NHexGly]YLNR[NMeNle][Ahp(2)]P[Tle]DCK[AEEA]D[AEEA][Aun]-OH; thioether N-14)
cell-based binding high-content assay, mVISTA, read-out: HC CBA miPrISTA IC50
  IC50: 27.7 nM
